For 56 compounds, AC50 results are on record in PubChem BioAssay AID1487 (National Center for Advancing Translational Sciences (NCATS), 2009).

Each structure is given as a SMILES string. Values joined by “and” are separate entries in the source; they are usually repeats but may differ in a detail not shown here. Equal entries are not always repeated. Some of the results follow. The main result of the screen is listed elsewhere. These columns were measured beside it and carry no call. The list favours compounds with an active or inconclusive main result. Words in brackets tell the shape of the fitted curve; partial curves, single points and poor fits give uncertain potencies.

This experiment can be described thus: qHTS Assay for Modulators of Lamin A Splicing. The note with it: HeLa LMNA splicing GFP/RFP minigene ratio, 48 h. The gist of the method: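 S3 HeLa cells stably expressing lamin A-EGFP splicing minigene plus DsRed2, 600 cells/well, 48 h compound exposure at 37C. Laser-scanning cytometry; analysed as GFP (500-530 nm)/RFP (575-640 nm) total intensity ratio; 0.5% DMSO vehicle.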

The mark [1] stands for this setting: measured here: RFP viability control channel.
Where [2] appears, read: measured here: GFP splicing reporter channel.

As a reminder, the AC50 is the concentration at which the activity in the assay is half-maximal. Regarding `Cn1c(=O)c2c(nc(N3CCOCC3)n2CCCNC2=NCCC2)n(C)c1=O`, under setting [1], the half-maximal activity concentration (AC50) was 0.0251 µM [falling, full curve, poor fit].
With `Cc1ccccc1-n1nc(C)c2cc(C(=O)N3CCOCC3)sc21`, the half-maximal activity concentration (AC50) was 35.5 µM [rising, single point] under setting [2] and 35.5 µM [rising, single point] under setting [1].
Consider `COc1ccc(C(=O)N/N=C(\c2ccccc2)c2ccccn2)cc1`, for which the AC50 was 2.24 µM [rising, full curve, poor fit] under setting [2] and 3.16 µM [rising, full curve] under setting [1].
For `Cc1ccc(S(=O)(=O)N/N=C/c2cc([N+](=O)[O-])ccc2O)cc1[N+](=O)[O-]`, under setting [2], the AC50 is 4.47 µM [rising, full curve].
For `O=C(NCC1(c2ccccc2)CCCC1)c1ccccc1Br`, the AC50 by setting is: under setting [2], 10 µM [rising, partial curve, poor fit]; under setting [1], 14.1 µM [rising, partial curve, poor fit].
For `Cc1csc(NC(=O)Cc2coc3cc(C)c(C(C)C)cc23)n1`, under setting [1], the AC50 was 6.31 µM [rising, full curve].
As to `N#Cc1nc(COc2ccc(Br)cc2)oc1NCCN1CCOCC1`, the AC50 is, setting by setting: under setting [2], 31.6 µM [rising, single point]; under setting [1], 31.6 µM [rising, single point].
Regarding `COc1ccccc1N1CCN(C(=O)c2oc3ccc(F)cc3c2C)CC1`, the AC50 under setting [1] is 1 µM [rising, full curve].
The same measure, in the same setting: as for `Cc1ccc(C)c(NC(=S)NC(C)C(c2cccs2)N2CCOCC2)c1` (stereo not given), the figure is 0.631 µM [falling, partial curve, poor fit]; as for `CCOC(=O)c1[nH]c(C)c(CCC(=O)Nc2ccc(N(CC)CC)cc2C)c1C`, 4.47 µM [falling, partial curve, poor fit].
For `Oc1ccc(/C=N/Nc2nccnc2Cl)c(O)c1`, the AC50 under setting [2] is 5.01 µM [falling, full curve, poor fit].
As for `CCOc1ccc(CCNc2nc3c(c(=O)n(C)c(=O)n3C)n2CC)cc1OCC`, the AC50 under setting [1] was 5.62 µM [rising, single point].
The same measure, in the same setting: as for `Cc1ccc(C)c(C(C)NC(=O)C2C3CCC(O3)C2C(=O)O)c1` (stereo not given), the figure is 5.62 µM [falling, single point].
As to `CCS(=O)(=O)N1CC(=O)N(c2cccc(C)c2C)C(C)(C(=O)NC2CCCCC2)C1` (stereo not given), the AC50 by setting is: under setting [2], 1 µM [rising, full curve]; under setting [1], 0.794 µM [rising, full curve, poor fit].
Take `CC(=O)OC(C(=O)NCS(=O)(=O)c1ccc(C)cc1)c1cccnc1` (stereo not given): the AC50 under setting [1] was 2 µM [falling, partial curve, poor fit].
Take `CCCCc1ccc(NC(=O)COc2cccc3c(=O)n(C)ccc23)cc1`: the AC50 under setting [1] was 22.4 µM [falling, partial curve, poor fit].
With `Cc1cc(C(=O)OCC(=O)N2CCN(C(=O)c3ccco3)CC2)c(C)n1-c1ccc(F)cc1`, under setting [1], the AC50 was 14.1 µM [rising, partial curve].
As to `O=C(CSc1nnc(COc2ccc(Cl)cc2)o1)N1CCN(c2ccccc2)CC1`, the AC50 under setting [2] is 3.98 µM [falling, single point] and the AC50 under setting [1] is 3.55 µM [falling, single point].
Consider `NC(=O)c1c(NC(=O)CSc2nnc(Cc3ccccc3)n2Cc2ccco2)sc2c1CCC2`, for which the AC50 reads like this: under setting [2], 15.8 µM [rising, partial curve]; under setting [1], 12.6 µM [rising, partial curve].
In the case of `Cc1ccc(NC(=O)N2CCC(CN3CCC(C)CC3)CC2)cc1F`, the AC50 reads like this: under setting [2], 0.891 µM [falling, full curve, poor fit]; under setting [1], 0.891 µM [falling, full curve, poor fit].
In the case of `N=c1c2c(-c3ccccc3)c(-c3ccccc3)n(Cc3ccco3)c2ncn1Cc1ccco1`, the AC50 under setting [2] was 35.5 µM [falling, single point] and the AC50 under setting [1] was 35.5 µM [falling, single point].
As to `COc1ccc2oc(-c3ccccc3)c(C(N)=O)c2c1`, the AC50 under setting [1] is 8.91 µM [rising, partial curve].
As for `C=CCCCCc1nc2ccccc2c(=O)n1N`, the AC50 by setting is: under setting [2], 0.282 µM [rising, partial curve]; under setting [1], 0.794 µM [rising, partial curve].
In the case of `O=c1c(O)c(-c2ccccc2)oc2cccc(O)c12`, the AC50 under setting [1] was 35.5 µM [falling, single point].
As to `Cc1cc(/C=C\c2ccc3cc(N(C)C)ccc3[n+]2C)c(C)n1-c1ccccc1`, the concentration at half-maximal activity (AC50) was 10 µM [falling, partial curve, poor fit] under setting [2] and 12.6 µM [rising, partial curve] under setting [1].
Regarding `O=C(c1ccco1)N1CCN(CCCCOc2cccc3ccccc23)CC1`, the AC50 runs as follows: under setting [2], 22.4 µM [rising, single point]; under setting [1], 17.8 µM [rising, single point].
For `C/C(CC(=O)Nc1ccc(Cl)c(C(F)(F)F)c1)=N\NC(=O)c1ccccc1O`, the AC50 under setting [1] is 11.2 µM [rising, partial curve].
As to `CCS(=O)(=O)NCC(c1ccco1)N1CCN(c2ccc(OC)cc2)CC1` (stereo not given), the AC50 by setting is: under setting [2], 0.355 µM [falling, full curve, poor fit]; under setting [1], 0.794 µM [falling, full curve, poor fit].
For `O=C(CSc1nc(O)cc(=O)n1-c1ccccc1)Nc1ccc2c3c(cccc13)CC2`, the AC50 by setting is: under setting [2], 0.0355 µM [falling, full curve, poor fit]; under setting [1], 3.98 µM [falling, full curve, poor fit].
`CN(C)CCn1c(=N)n(CC(O)c2ccc(Cl)c(Cl)c2)c2ccccc21` (stereo not given): under setting [2], the AC50 is 8.91 µM [falling, full curve, poor fit].
In the case of `CC(C)Cc1cc(C(=O)Nc2cc(Br)ccc2O)no1`, under setting [1], the AC50 is 12.6 µM [rising, partial curve, poor fit].
On the same count and under the same terms, as for `CCSc1nnc(NC(=O)C2CCN(S(=O)(=O)c3ccccc3C(F)(F)F)CC2)s1`, the figure is 25.1 µM [rising, partial curve]; as for `CCOc1ccc2c(c1)sc(N)[n+]2Cc1cc(C)cc2cccnc12`, 2 µM [rising, full curve]; as for `COc1cc(OC)cc(C(=O)N[C@H](C(=O)Nc2nnc(C3CC3)s2)C(C)C)c1`, 15.8 µM [rising, partial curve, poor fit].
Same read-out and setting: as for `Cc1ccc(S(=O)(=O)N(C)c2cc(S(N)(=O)=O)c(C)cc2C)cc1`, the figure is 35.5 µM [rising, single point]; as for `COc1ccc(NC(=O)CCn2nnc(-c3ccc(C)cc3)n2)cc1OC`, 22.4 µM [rising, single point]; as for `O=C(Nc1cccc(N=Cc2cc(Br)cc(Br)c2O)c1)c1ccco1`, 14.1 µM [rising, single point].
`CS(=O)(=O)c1nc(-c2cccs2)cc(C(F)(F)F)n1`: the AC50 under setting [1] is 15.8 µM [falling, partial curve, poor fit].
Take `O=C(c1ccc2ncsc2c1)N1CCN(c2ccc(O)cc2)CC1`: the AC50 under setting [2] was 11.2 µM [falling, partial curve].
As to `CC1CN(C(=O)N2c3ccccc3Sc3ccccc32)C(C)CC1=O` (stereo not given), the AC50 under setting [1] was 22.4 µM [rising, single point].
`Cn1c(N/N=C/c2c[nH]c3ccccc23)nc2ccccc21`: under setting [2], the AC50 is 20 µM [falling, single point].
For the compound `CC(C)Cn1c(N)c(C(=O)COC(=O)C2CCCCC2)c(=O)n(C)c1=O`, the AC50 is 14.1 µM [rising, single point] under setting [2] and 15.8 µM [rising, single point] under setting [1].
With `CC(C)CNS(=O)(=O)c1ccc(C(=O)Nc2ccc3c(c2)OCCO3)cc1`, the AC50 is, setting by setting: under setting [2], 10 µM [rising, partial curve]; under setting [1], 12.6 µM [rising, single point].
As for `CCCN(CCC)S(=O)(=O)c1ccc2c(c1)CCCN2C(C)=O`, the half-maximal activity concentration (AC50) under setting [2] is 17.8 µM [rising, partial curve, poor fit] and the AC50 under setting [1] was 31.6 µM [rising, single point].
As for `CSC1=C(C#N)C(c2ccccc2)C(C(C)=O)=C(C)N1` (stereo not given), the AC50 under setting [2] is 10 µM [rising, partial curve, poor fit].
The same measure, in the same setting: the result for `Nc1c(Cl)c(Cl)nc(C(=O)N/N=C/c2cccnc2)c1Cl` reads 6.31 µM [rising, single point].
Regarding `CCCCn1nc(NC(=O)c2cccs2)c2cc3ccccc3nc21`, the AC50 under setting [1] is 35.5 µM [rising, single point].
`C[C@H]1NC(=O)NC1=O`: the AC50 under setting [2] is 0.891 nM [falling, full curve, poor fit] and 14.1 µM [falling, partial curve, poor fit].
With `Cc1cccc(-n2ccnc2SCC(=O)Nc2nccs2)c1C`, the AC50 is 12.6 µM [rising, single point] under setting [2] and 17.8 µM [rising, single point] under setting [1].
For `CC1(C)CCCC2=C1CC1C(=O)N(c3ccccc3)C(=O)C1C2` (stereo not given), the AC50 under setting [2] is 14.1 µM [rising, single point].
Consider `N#Cc1c(NC(=O)CSc2ncn(-c3ccccc3)n2)sc2c1CCCC2`, for which the AC50 under setting [1] is 31.6 µM [rising, single point].
As to `Cc1cc(/C=N/n2cnnc2)c(C)n1-c1ccc(OCc2ccc(Cl)cc2Cl)cc1`, the AC50 under setting [2] was 3.55 µM [rising, full curve, poor fit].
Turning to `CC(=O)c1cc2c(cc1NC(=O)c1cc(C)nn1-c1ccccc1)OCO2`, the AC50 under setting [1] was 3.16 µM [rising, partial curve, poor fit].
Turning to `COCc1cc(Sc2ccc(Cl)cc2)nc(-c2ccccc2)n1`, the AC50 by setting is: under setting [2], 15.8 µM [rising, single point]; under setting [1], 22.4 µM [rising, single point].
Take `Cn1c(CCN2CCCCC2)nc2cc(NS(=O)(=O)c3ccc(Cl)cc3)ccc21`: the AC50 under setting [2] was 35.5 µM [falling, single point].
Turning to `O=C(COc1ccc(-n2cnnn2)cc1)NCCc1ccc(F)cc1`, under setting [1], the AC50 is 0.447 µM [rising, partial curve, poor fit].
